No constants are given. Whether binding was seen depends on the method and setting. In cells and extracts the contact can be indirect. Binding calls can cover weak binding; strength is not graded here.

By UniProt entry, the sequences of proteins in these tests, tags left out. Where a name states a change or a piece, a line headed by the entry shows the natural chain unless it says otherwise.
UniProt Q0ZGT2: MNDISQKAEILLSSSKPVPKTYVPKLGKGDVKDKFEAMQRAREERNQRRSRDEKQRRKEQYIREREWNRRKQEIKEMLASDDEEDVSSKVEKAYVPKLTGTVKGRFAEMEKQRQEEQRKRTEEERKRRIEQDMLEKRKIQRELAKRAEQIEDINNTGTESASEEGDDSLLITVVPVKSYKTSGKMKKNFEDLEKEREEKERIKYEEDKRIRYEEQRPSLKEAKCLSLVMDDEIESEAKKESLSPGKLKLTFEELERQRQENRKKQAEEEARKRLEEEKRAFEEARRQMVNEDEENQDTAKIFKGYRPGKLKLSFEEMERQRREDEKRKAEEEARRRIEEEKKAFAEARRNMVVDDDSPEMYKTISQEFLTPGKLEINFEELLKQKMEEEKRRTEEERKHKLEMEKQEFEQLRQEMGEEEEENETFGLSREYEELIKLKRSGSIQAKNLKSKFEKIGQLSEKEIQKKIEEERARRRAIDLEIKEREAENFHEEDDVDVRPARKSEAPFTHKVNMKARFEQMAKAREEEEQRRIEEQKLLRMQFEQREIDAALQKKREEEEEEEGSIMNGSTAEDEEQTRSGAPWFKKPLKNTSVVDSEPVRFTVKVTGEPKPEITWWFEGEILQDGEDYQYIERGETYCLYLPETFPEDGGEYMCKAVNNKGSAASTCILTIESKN

The target of one assay is His-tagged full-length human nexilin (human) (UniProt Q0ZGT2). Description: pull-down; His-nexilin bound to Ni-NTA; lysates of HEK-293 cells overexpressing Flag-tagged nexilin variants; Flag and actin blots; only the target purified.
As to “Flag-tagged human nexilin lacking exon 6 (from UniProt Q0ZGT2-1)”, the binding result was “binds”.

On to “Flag-tagged human nexilin lacking exons 6–8 (from UniProt Q0ZGT2-1)”, for which the binding entry is on record as “binds”.

The target is the same in a further assay. Nature of the assay: pull-down; His-nexilin bound to Ni-NTA resin; GST-nexilin variants as bacterial lysate, 2 h, 4 °C, PD buffer (50 mM NaCl, 10 mM Tris/HCl pH 7.5, 0.1% Triton X-100) with 20 mM imidazole; GST blot; only the target purified.
Consider “GST-tagged human nexilin lacking exon 3 (from UniProt Q0ZGT2-1)”, for which the binding entry is “no binding”. The same measure, in the same setting: next, “GST-tagged human nexilin lacking exon 6 (from UniProt Q0ZGT2-1)”: “binds weakly”; “GST-tagged human nexilin lacking exons 6–7 (from UniProt Q0ZGT2-1) (domain or fragment)”: “binds weakly”. On the same count and under the same terms, the value for “GST-tagged human nexilin lacking exons 6–8 (from UniProt Q0ZGT2-1)” was “binds weakly”; that for “GST-tagged human nexilin lacking exons 6–9 (from UniProt Q0ZGT2-1) (domain or fragment)” was “binds weakly”.

These data come from paper PMC11640418.
